The target in this assay is Flag-SPIN•DOC wild type (UniProt Q9BUA3). The assay is described as follows: co-IP.

Sequences of proteins named here, by UniProt entry; tags and fusion partners are left off.
UniProt Q9BUA3: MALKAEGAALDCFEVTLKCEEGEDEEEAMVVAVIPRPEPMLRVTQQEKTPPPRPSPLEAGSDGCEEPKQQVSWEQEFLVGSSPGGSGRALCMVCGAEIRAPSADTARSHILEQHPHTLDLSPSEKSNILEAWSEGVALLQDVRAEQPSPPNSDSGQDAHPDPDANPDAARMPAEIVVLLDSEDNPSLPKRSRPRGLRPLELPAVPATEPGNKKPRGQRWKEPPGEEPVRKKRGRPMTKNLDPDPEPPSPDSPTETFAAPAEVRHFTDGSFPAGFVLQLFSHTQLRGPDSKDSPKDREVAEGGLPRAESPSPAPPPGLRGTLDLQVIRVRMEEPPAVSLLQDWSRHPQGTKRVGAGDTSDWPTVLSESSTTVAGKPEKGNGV

Results on one substance are retold here after publication doi:10.1101/2021.03.07.432812.

Results are given in words; binding and its absence hold for the method and conditions named. In cells and extracts the contact can be indirect. Some results given as binding are weak or reduced against the parent protein; the word gives no strength.

Regarding “GFP-SPIN•DOC wild type (from UniProt Q9BUA3 1-381)”, the binding entry is given as “binds”.
